No constants are given. Whether binding was seen depends on the method and setting. Some entries that bind do so weakly or less than the wild type.
Tests used:
Assay in all cases: Y2H; output trait library
[1] = target: OsMADS6 aa 50-200 (Oryza sativa) (UniProt Q6EU39)
[2] = target: OsRAP1B aa 1-247 (Oryza sativa) (UniProt Q10CQ1)
[3] = target: T1, Os018989-4003 aa 90-220 (Oryza sativa)
T1 sequence: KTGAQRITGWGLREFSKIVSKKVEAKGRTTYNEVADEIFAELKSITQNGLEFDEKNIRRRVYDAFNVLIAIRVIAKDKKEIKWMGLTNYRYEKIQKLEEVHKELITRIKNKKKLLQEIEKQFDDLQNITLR

Chains of the proteins cited; added tags and fusions are not shown. Lines headed by an entry give the natural chain unless they say otherwise; changes in a name come on top.
UniProt Q6EU39: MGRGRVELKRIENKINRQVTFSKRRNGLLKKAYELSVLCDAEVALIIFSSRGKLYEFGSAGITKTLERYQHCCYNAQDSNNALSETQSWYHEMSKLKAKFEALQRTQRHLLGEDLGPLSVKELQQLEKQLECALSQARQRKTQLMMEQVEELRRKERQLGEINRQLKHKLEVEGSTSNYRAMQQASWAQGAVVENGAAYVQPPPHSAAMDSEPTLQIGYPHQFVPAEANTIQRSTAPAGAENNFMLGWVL
UniProt Q10CQ1: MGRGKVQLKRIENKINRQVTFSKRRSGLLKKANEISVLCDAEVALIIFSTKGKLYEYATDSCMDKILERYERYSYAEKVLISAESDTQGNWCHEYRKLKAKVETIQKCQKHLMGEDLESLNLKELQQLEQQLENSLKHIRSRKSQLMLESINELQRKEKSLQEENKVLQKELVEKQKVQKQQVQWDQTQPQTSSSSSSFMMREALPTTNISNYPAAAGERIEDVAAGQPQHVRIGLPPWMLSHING
UniProt Q6Z6W2: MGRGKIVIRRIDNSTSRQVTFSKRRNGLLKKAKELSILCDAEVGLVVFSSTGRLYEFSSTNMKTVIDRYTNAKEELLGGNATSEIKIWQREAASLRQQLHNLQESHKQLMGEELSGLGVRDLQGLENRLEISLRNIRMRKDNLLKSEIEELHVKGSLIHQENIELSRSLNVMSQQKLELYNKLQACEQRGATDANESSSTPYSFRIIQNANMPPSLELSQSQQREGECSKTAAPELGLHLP
UniProt P0C5B0: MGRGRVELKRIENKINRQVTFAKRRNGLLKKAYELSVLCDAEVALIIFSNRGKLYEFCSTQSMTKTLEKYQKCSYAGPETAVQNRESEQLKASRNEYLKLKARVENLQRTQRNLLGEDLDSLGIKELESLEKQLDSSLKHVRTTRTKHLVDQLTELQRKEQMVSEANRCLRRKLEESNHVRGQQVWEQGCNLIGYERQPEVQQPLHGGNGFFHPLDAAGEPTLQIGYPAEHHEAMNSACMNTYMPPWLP

binding [1] | Substance | further results
binds | OsPN29949 aa 118-241 (from UniProt Q6Z6W2 118-241) | –
binds | OsPN29949 aa 109-193 (from UniProt Q6Z6W2 109-193) | –
– | OsMADS7 aa 1-250 (from UniProt P0C5B0 1-240) | binding [2]: binds
– | OsMADS14 aa 54-180 (from UniProt Q10CQ1 54-180) | binding [3]: binds

— US20060253917A1
